{"source": "patent US20250299826A1", "about": "“OPTIMAL TUMOR MICROENVIRONMENT NORMALIZATION THERAPY” (University of Connecticut, priority 2022, published 2025)", "origin": "cited, not measured here", "key": {"[1]": {"test_system": "orthotopic 4T1 breast cancer", "conditions": "cited from earlier work"}, "[2]": {"test_system": "orthotopic 4T1 breast cancer", "conditions": "70 kDa dextran, cited from earlier work"}}, "note": "Where two headings read alike, the source gives them in different places. At least one structure is not confirmed: it was looked up by name or label, or the drawing left a doubt."}
{"smiles": "C[C@@H]1C[C@H]2[C@@H]3CCC4=CC(=O)C=C[C@]4(C)[C@@]3(F)[C@@H](O)C[C@]2(C)[C@@]1(O)C(=O)CO", "note": "[DEX, dexamethasone]", "values": [{"measurement": "p^peri,max, upper physical bound on superficial (peripheral) tumor IFP", "setting": "[1]; 3 mg/kg DEX", "value": 3.62, "unit": "mmHg"}, {"measurement": "p^peri,min, lower physical bound on superficial (peripheral) tumor IFP", "setting": "[1]; 3 mg/kg DEX", "value": 3.02, "unit": "mmHg"}, {"measurement": "p^peri,max, upper physical bound on superficial (peripheral) tumor IFP", "setting": "[1]; 30 mg/kg DEX", "value": 2.45, "unit": "mmHg"}, {"measurement": "p^peri,min, lower physical bound on superficial (peripheral) tumor IFP", "setting": "[1]; 30 mg/kg DEX", "value": 1.95, "unit": "mmHg"}, {"measurement": "lowest dose to reduce IFP", "setting": "[1]; previous work", "value": 3, "unit": "mg/kg"}, {"measurement": "P_eff", "setting": "[2]; 3 mg/kg DEX daily for 4 days", "value": 4.61, "unit": "×10⁻⁶ cm/s"}, {"measurement": "P_eff", "setting": "[2]; 30 mg/kg DEX daily for 4 days", "value": 2.8, "unit": "×10⁻⁶ cm/s"}]}
